The whole screen tested about 200,000 compounds, of which about 25 (0.01%) were called active. Inconclusive results, whose numbers are uncertain, are shown with a selection of clear calls. The call rests on the fitted dose curve; in most records, active means well fitted inhibition curve with a large enough effect in the signal ratio, with a control signal flat (not every such curve was filed as active); inconclusive means small, poorly fitted or top-dose-only effect, or effect the other way, or a change in a side signal; inactive means flat fitted curve, though single readings scatter; the % refers to the signal ratio. Where the call is inconclusive, the potency comes from a doubtful curve fit.
assay: qHTS Assay for Modulators of Lamin A Splicing; details: HeLa LMNA splicing GFP/RFP minigene ratio, 48 h; ratio change, negative = inhibition: at 46.1 µM (top of the series) unless noted
In short: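 S3 HeLa cells stably expressing lamin A-EGFP splicing minigene plus DsRed2, 600 cells/well, 48 h compound exposure at 37C. Laser-scanning cytometry; analysed as GFP (500-530 nm)/RFP (575-640 nm) total intensity ratio; 0.5% DMSO vehicle.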
On the % scale 0 is the no-effect control and ±100 the full control effect; potency means the concentration at half of the fitted maximal effect.

| SMILES | ratio change, negative = inhibition | Potency |
| --- | --- | --- |
| COc1ccccc1CN(Cc1cc2cc3c(cc2[nH]c1=O)OCCO3)Cc1nnnn1Cc1ccco1 | inconclusive: -20.2% |  |
| CCCCN(C(=O)Nc1ccc(OCC)cc1)C1CCN(C(C)=O)CC1 | inconclusive: -12.1% [at 46 µM] |  |
| CCCc1ccc(OC(=O)c2sc3ncn(Cc4cccc(F)c4)c(=O)c3c2C)cc1 | inconclusive: -14.6% [at 46 µM] |  |
| CC1=CC(=O)C=C(C)C1=NOc1ccc([N+](=O)[O-])cc1 | inconclusive: 25.2% [at 9.22 µM] |  |
| Cn1c(SCC(=O)NCc2ccc(F)cc2)nc2ccccc21 | inconclusive: -0.832% |  |
| CC1=CC(C)(C)Nc2ccc(OS(=O)(=O)c3ccc(C)cc3)cc21 | inconclusive: -21.2% |  |
| O=C(Nc1ccc(Br)cc1)c1ccc(Br)c(S(=O)(=O)Nc2cccnc2)c1 |  | inconclusive: 35.5 µM [inhibitor, single point] |
| COc1ccc(N2CCN(Cc3cc(=O)oc4cc(-c5ccccc5)c(O)cc34)CC2)cc1 | inconclusive: 7.77% |  |
| COc1ccc(CNc2ccnc(-c3c(C)noc3C)n2)c(OC)c1 | inconclusive: -22.4% |  |
| CC(=O)Nc1cccc(C(=O)/C=C/c2ccc(Br)cc2)c1 |  | inconclusive: 22.4 µM [rising, single point] |
| CCC(CC)NC(=O)Nc1ccc(F)cc1F | inconclusive: 30.1% [at 46 µM] |  |
| O=C(Cn1ccn(-c2ccc(F)c(F)c2)c(=O)c1=O)NCc1ccccc1 | inactive: 22.1% [at 46 µM] |  |
| O=C(CCSCc1ccccc1Cl)NCCc1ccccc1 | inactive: -7.64% [at 46 µM] |  |
| CC(C)(C)n1nnnc1C(c1ccc2ncccc2c1)N1CCSCC1 (stereo unspecified) |  | active: 6.31 µM |
| CCOC(=O)c1c(C)nn(-c2ncccc2NC(=O)CCC(=O)O)c1C | inconclusive: -4.82% [at 46 µM] |  |
| Cc1cc(C)c2nc(NNC(=O)c3ccc(S(=O)(=O)N4CC(C)CC(C)C4)cc3)sc2c1 (stereo unspecified) |  | inconclusive: 28.2 µM [inhibitor, single point] |
| COC(=O)C1=CN(c2ccc(OC)cc2)C=C(C(=O)OC)C1c1ccc(C)c([N+](=O)[O-])c1 | inconclusive: -30.6% |  |
| Cc1nc(Sc2nnnn2C)c2c3c(sc2n1)CCC3 |  | inconclusive: 2.51 µM [inhibitor, full curve] |
| O=C1/C(=C/c2ccc(F)cc2)Oc2cc(OC(=O)N3CCOCC3)ccc21 | inconclusive: 38.2% [at 46 µM] |  |
| NNCCc1ccccc1 |  | inconclusive: 5.62 µM [activator, single point] |
| O=C(CSc1nc2c(c(C(F)(F)F)n1)CCc1ccccc1-2)NCc1ccco1 | inconclusive: 9.16% |  |

Looked up above.
Entry for O=C(Nc1ccc(Br)cc1)c1ccc(Br)c(S(=O)(=O)Nc2cccnc2)c1 under Potency: inconclusive: 35.5 µM [inhibitor, single point]
Entry for O=C(Cn1ccn(-c2ccc(F)c(F)c2)c(=O)c1=O)NCc1ccccc1 under ratio change, negative = inhibition: inactive: 22.1% [at 46 µM]
Entry for Cc1cc(C)c2nc(NNC(=O)c3ccc(S(=O)(=O)N4CC(C)CC(C)C4)cc3)sc2c1 (stereo unspecified) under Potency: inconclusive: 28.2 µM [inhibitor, single point]

(continued)

| SMILES | ratio change, negative = inhibition | Potency |
| --- | --- | --- |
| Cc1ccc(S(=O)(=O)N2CCC(=O)N(CCOCc3cccc(Cl)c3)CC2)cc1 |  | inconclusive: 35.5 µM [fluorescent, single point] |
| COc1nc(C)nc2c1sc(=S)n2C | inconclusive: 0.735% |  |
| Cc1c(CCOC(=O)c2cc([N+](=O)[O-])ccc2Cl)sc[n+]1CCCCS(=O)(=O)[O-] | inactive: 11.9% [at 46 µM] |  |
| O=C(NCc1ccccc1F)C(=O)NCC(c1cccs1)S(=O)(=O)c1cccs1 (stereo unspecified) | inconclusive: -1.56% [at 46 µM] |  |
| COc1cc(/C=C\C(=O)Nc2cc(=O)n(C)c(=O)n2C)cc(OC)c1OC | inconclusive: -34.6% [at 46 µM] |  |
| CCN(CC)S(=O)(=O)c1cc(NC(=O)CSc2nc3c(cc2C#N)C(=O)CC(C)(C)C3)ccc1C |  | inconclusive: 10 µM [falling, partial curve] |
| Cc1ccc(S(=O)(=O)NCC2CCC(C(=O)NCc3ccc4c(c3)OCO4)CC2)cc1 (stereo unspecified) | inactive: 3.2% |  |
| Cc1nnc2n1NC(c1ccc(Cl)cc1)C(C(=O)N(C)C1CCCCC1)S2 (stereo unspecified) | inactive: 4.68% |  |
| COc1ccc(OC)c(NC(=O)c2c(NC(=O)CCC(=O)O)sc3c2CCCCC3)c1 | inconclusive: 1.11% |  |
| CCOC(=O)N(C)OC(=O)Nc1ccc(Cl)c(Cl)c1 | inactive: 13.5% |  |
| COc1ccccc1OCC(=O)NCC1(N2CCOCC2)CCCCC1 | inactive: -0.106% [at 46 µM] |  |
| CC(C)(C=O)Cc1cc(C(C)(C)C)c(O)c(C(C)(C)C)c1 | inconclusive: 8.61% |  |
| Cc1ccc(-c2nc3ccccc3c(=O)n2NC(=O)c2cccs2)cc1 | inactive: -10.6% |  |
| Cc1ccc(C)c(N2CCN(C(=O)c3ccc(CSc4nc5ccncc5[nH]4)cc3)CC2)c1 |  | inconclusive: 11.2 µM [fluorescent, partial curve] |
| COc1ccc(-n2cc(-c3ccccc3)[n+]3c2CCCCC3)cc1 | inconclusive: -25.2% [at 46 µM] |  |
| NS(=O)(=O)c1ccc(CCNC(=O)CN2CCN(c3cccc(Cl)c3)CC2)cc1 | inconclusive: -18% |  |
| Clc1ncc(Cn2cccn2)s1 | inconclusive: -23% [at 46 µM] |  |
| O=c1[nH]c2cc3c(cc2cc1CN(CC1CCCO1)S(=O)(=O)c1ccc(Cl)cc1)OCCO3 (stereo unspecified) | inactive: 9.81% |  |
| Cc1ccc(N(C(=O)c2ccc(S(=O)(=O)N3CCOCC3)cc2)C2C=CS(=O)(=O)C2)cc1C (stereo unspecified) | inconclusive: 0.708% [at 46 µM] |  |
| O=S(=O)(NCc1ccc(F)cc1)c1ccc2[nH]c3c(c2c1)CCCCC3 | inconclusive: -42.7% [at 46 µM] |  |

From PubChem BioAssay AID1487 (National Center for Advancing Translational Sciences (NCATS), 2009)
